The supplement of paper PMC11348887
Values joined by “and” are separate entries in the source; they are usually repeats but may differ in a detail not shown here. Equal values may be shown once. Where a name gives a salt, the structure may show the parent alone. The list shows a part of the results. Most entries show no effect beyond the scatter of the controls. *1 amine or outer side, *2 acyl side, *3 side chain or, on linkers, in order; H or OH if unused. Where a SMILES comes first, the peptide text is derived from it. Bridges are numbered along the chain shown (N, C = ends). [ ]: non-standard residue; d: D form. The star is where a group is joined. pTerphenylCO(4''-OnC5H11) = CCCCCOc1ccc(-c2ccc(-c3ccc(C(=O)*)cc3)cc2)cc1; Orn(4R-OH,5R-OH) = O=C([C@H](C[C@@H](O)[C@@H](O)N[*:3])N[*:1])[*:2]; hTyr(3S-OH,4S-OH) = N[C@H](C(=O)O)[C@H](O)[C@@H](O)c1ccc(O)cc1; Pro(3S-OH,4S-Me) = C[C@H]1CN[C@H](C(=O)O)[C@H]1O; Hyp = O=C(O)[C@@H]1C[C@@H](O)CN1; Cbz = O=C(OCc1ccccc1)*; CH2F = FC*

These compounds were tested on hPSC-derived cortical neurons (WA09) (assay: nucleus area z-score vs screen plate; higher = larger nuclei (more mature)). Conditions: 5 µM; treatment: days 7-14 after plating, readout day 21.

Compound	nucleus area z-score
Cn1cc(-c2ccc3ncc(Cc4ccc5ncccc5c4)n3n2)cn1	0.524
Cc1cn([C@H]2O[C@@H](CO)[C@H](O)[C@H]2F)c(=O)[nH]c1=O [Clevudine]	0.165
COC(=O)C[C@H](NC(=O)[C@H](C)NC(=O)[C@@H](NC(=O)OCc1ccccc1)C(C)C)C(=O)CF (Cbz-Val-Ala-Asp(OMe)-CH2F)	-0.248
CN(C)CCC[C@@]1(c2ccc(F)cc2)OCc2cc(C#N)ccc21 [Escitalopram Oxalate]	0.375
CC(C)[C@H](O)C(=O)N[C@@H](C)C(=O)N[C@@H]1C(=O)N(C)CCc2ccccc21	-0.91

These compounds were tested on hPSC-derived cortical neurons (WA09) (assay: total neurite length per nucleus (MAP2) z-score; higher = more neurite growth). Conditions: 5 µM; treatment: days 7-14 after plating, readout day 21.

Compound	total neurite length per nucleus (z-score)
N[C@H]1CC[C@H](N[C@@H]2C[C@H]2c2ccccc2)CC1	-0.169
C=C1/C(=C\C=C2/CCC[C@]3(C)[C@@H]([C@H](C)CCCC(C)C)CC[C@@H]23)C[C@@H](O)C[C@@H]1O [Alfacalcidol]	-0.965
O=C(O)CCNc1cc(N2CCc3ccccc3CC2)nc(-c2ccccn2)n1	1.19
O=C(NOC[C@H](O)CO)c1ccc(F)c(F)c1Nc1ccc(I)cc1F	-0.201
CCC(C)SSc1ncc[nH]1 (configuration not stated)	0.705
COC(=O)N[C@H](C(=O)N1CC2(CC2)C[C@H]1c1nc(-c2ccc3c(c2)C(F)(F)c2cc(-c4ccc5[nH]c([C@@H]6[C@H]7CC[C@H](C7)N6C(=O)[C@@H](NC(=O)OC)C(C)C)nc5c4)ccc2-3)c[nH]1)C(C)C [Ledipasvir (GS5885)]	-1.17
CN1CCN(C(=O)c2cc3cc(Cl)ccc3[nH]2)CC1	0.768
CC(C)(O)CNc1nc(Nc2ccnc(C(F)(F)F)c2)nc(-c2cccc(C(F)(F)F)n2)n1 [Enasidenib (AG-221)]	0.105
CC(C)Cn1cnc2c(N)nc3ccccc3c21 [Imiquimod]	-1.02
O=C(NC1CCNCC1)c1n[nH]cc1NC(=O)c1c(Cl)cccc1Cl	-6.63 and -5.68
CCC/N=C1\S/C(=C\c2ccc(OC[C@H](O)CO)c(Cl)c2)C(=O)N1c1ccccc1C [Ponesimod]	-1.49
CCOC(=O)c1[nH]c2cc(Cl)ccc2c1C(C(=O)NC(C)(C)C)N(C=O)Cc1ccc(Cl)cc1 (configuration not stated)	0.164
Cc1cc(Nc2ccc(NC(=O)c3ccc(Nc4ccnc5ccccc45)cc3)cc2)nc(N)n1	-3.74
COc1cc(O)c(CC=C(C)C)c(O)c1C(=O)/C=C/c1ccc(O)cc1 [Xanthohumol]	-0.857
CC[C@@H]1/C=C(\C)C[C@H](C)C[C@H](OC)[C@H]2O[C@@](O)(C(=O)C(=O)N3CCCC[C@H]3C(=O)O[C@H](/C(C)=C/[C@@H]3CC[C@H](Cl)[C@H](OC)C3)[C@H](C)[C@@H](O)CC1=O)[C@H](C)C[C@@H]2OC [Pimecrolimus]	-0.58
Cc1ncc([N+](=O)[O-])n1CCO [Metronidazole]	-0.789
CN(C)CCCN1c2ccccc2CCc2ccccc21 [Imipramine HCl]	0.25
C#Cc1cccc(Nc2ncnc3cc(OCCOC)c(OCCO)cc23)c1	0.689
Nc1nc(=S)c2ncn([C@H]3C[C@H](O)[C@@H](CO)O3)c2[nH]1	-0.376

Two compounds picked at random from those above:
Compound	total neurite length per nucleus (z-score)
CC[C@@H]1/C=C(\C)C[C@H](C)C[C@H](OC)[C@H]2O[C@@](O)(C(=O)C(=O)N3CCCC[C@H]3C(=O)O[C@H](/C(C)=C/[C@@H]3CC[C@H](Cl)[C@H](OC)C3)[C@H](C)[C@@H](O)CC1=O)[C@H](C)C[C@@H]2OC [Pimecrolimus]	-0.58
Cc1cc(Nc2ccc(NC(=O)c3ccc(Nc4ccnc5ccccc45)cc3)cc2)nc(N)n1	-3.74

(further entries)

Compound	total neurite length per nucleus (z-score)
O=C(NC[C@H](O)CO)c1ccncc1Nc1ccc(I)cc1F	-0.355
CCc1c2c(nc3ccc(OC(=O)N4CCC(N5CCCCC5)CC4)cc13)-c1cc3c(c(=O)n1C2)COC(=O)[C@]3(O)CC [Irinotecan]	0.779
Cc1onc(-c2ccccc2)c1C(=O)N[C@@H]1C(=O)N2[C@@H]1SC(C)(C)[C@@H]2C(=O)O [Oxacillin sodium monohydrate]	-0.446
Cc1nnc(NS(=O)(=O)c2ccc(N)cc2)s1 [Sulfamethizole]	-0.578
C[C@@H]1CCN(C(=O)CC#N)C[C@@H]1N(C)c1ncnc2[nH]ccc12	-0.436 and -0.717
C=CC(=O)Nc1cccc(C)c1Nc1ncc2cc(-c3c(Cl)c(OC)cc(OC)c3Cl)ccc2n1	1.6
CC(C)c1nc(CN(C)C(=O)N[C@H](C(=O)N[C@@H](Cc2ccccc2)C[C@H](O)[C@H](Cc2ccccc2)NC(=O)OCc2cncs2)C(C)C)cs1 [Ritonavir]	-0.0907
CCCCCOc1ccc(-c2ccc(-c3ccc(C(=O)N[C@H]4C[C@@H](O)[C@@H](O)NC(=O)[C@@H]5[C@@H](O)[C@@H](C)CN5C(=O)[C@H]([C@@H](C)O)NC(=O)[C@H]([C@H](O)[C@@H](O)c5ccc(O)cc5)NC(=O)[C@@H]5C[C@@H](O)CN5C(=O)[C@H]([C@@H](C)O)NC4=O)cc3)cc2)cc1 ({pTerphenylCO(4''-OnC5H11)}-[Orn(4R-OH,5R-OH)]T[Hyp][hTyr(3S-OH,4S-OH)]T[Pro(3S-OH,4S-Me)]; lactam 1-C)	-0.159
CC1(C)O[C@H]2CC(=O)OC[C@]23[C@H]2CC[C@@]4(C)[C@H](c5ccoc5)OC(=O)[C@H]5O[C@]54[C@]2(C)C(=O)C[C@@H]13 [Limonin]	-0.799
CO/N=C(\C(=O)N[C@@H]1C(=O)N2C(C(=O)O)=C(CSc3nc(=O)c(O)nn3C)CS[C@H]12)c1csc(N)n1 [Ceftriaxone Sodium Trihydrate]	0.457
Cn1nnc(-c2ccc3c(c2)[nH]c2nc(Cc4ccccc4)nc(NC4CCC(N)CC4)c23)n1 (configuration not stated)	-5.08
Cc1cc(Nc2cc(N3CCN(C)CC3)nc(Sc3ccc(NC(=O)C4CC4)cc3)n2)n[nH]1 [VX-680 (Tozasertib_ MK-0457)]	2.02
CCCCC(F)(F)[C@@]1(O)CC[C@H]2[C@@H](CC(=O)[C@@H]2CCCCCCC(=O)O)O1 [Lubiprostone]	0.493
Cn1cc(-c2ccc3ncc(Cc4ccc5ncccc5c4)n3n2)cn1	-0.514
Cc1cn([C@H]2O[C@@H](CO)[C@H](O)[C@H]2F)c(=O)[nH]c1=O [Clevudine]	0.0205
COC(=O)C[C@H](NC(=O)[C@H](C)NC(=O)[C@@H](NC(=O)OCc1ccccc1)C(C)C)C(=O)CF (Cbz-Val-Ala-Asp(OMe)-CH2F)	0.043
CN(C)CCC[C@@]1(c2ccc(F)cc2)OCc2cc(C#N)ccc21 [Escitalopram Oxalate]	-0.217
CC(C)[C@H](O)C(=O)N[C@@H](C)C(=O)N[C@@H]1C(=O)N(C)CCc2ccccc21	0.79
